Data published in article doi:10.1101/2025.04.16.649118.

Protein sequences, listed by entry. Tags and fused reporters are not part of them.
UniProt Q13283: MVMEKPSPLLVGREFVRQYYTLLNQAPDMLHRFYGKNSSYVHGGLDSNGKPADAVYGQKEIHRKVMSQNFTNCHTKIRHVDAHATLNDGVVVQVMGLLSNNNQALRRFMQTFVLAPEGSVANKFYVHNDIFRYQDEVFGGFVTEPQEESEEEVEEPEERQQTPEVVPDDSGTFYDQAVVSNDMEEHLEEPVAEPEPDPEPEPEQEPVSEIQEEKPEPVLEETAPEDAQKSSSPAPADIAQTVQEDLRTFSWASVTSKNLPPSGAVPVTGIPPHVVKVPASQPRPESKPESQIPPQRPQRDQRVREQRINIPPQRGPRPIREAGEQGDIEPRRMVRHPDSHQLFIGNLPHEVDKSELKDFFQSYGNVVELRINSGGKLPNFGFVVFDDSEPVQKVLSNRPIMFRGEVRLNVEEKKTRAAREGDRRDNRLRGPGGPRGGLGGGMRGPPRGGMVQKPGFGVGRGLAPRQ
UniProt Q92598: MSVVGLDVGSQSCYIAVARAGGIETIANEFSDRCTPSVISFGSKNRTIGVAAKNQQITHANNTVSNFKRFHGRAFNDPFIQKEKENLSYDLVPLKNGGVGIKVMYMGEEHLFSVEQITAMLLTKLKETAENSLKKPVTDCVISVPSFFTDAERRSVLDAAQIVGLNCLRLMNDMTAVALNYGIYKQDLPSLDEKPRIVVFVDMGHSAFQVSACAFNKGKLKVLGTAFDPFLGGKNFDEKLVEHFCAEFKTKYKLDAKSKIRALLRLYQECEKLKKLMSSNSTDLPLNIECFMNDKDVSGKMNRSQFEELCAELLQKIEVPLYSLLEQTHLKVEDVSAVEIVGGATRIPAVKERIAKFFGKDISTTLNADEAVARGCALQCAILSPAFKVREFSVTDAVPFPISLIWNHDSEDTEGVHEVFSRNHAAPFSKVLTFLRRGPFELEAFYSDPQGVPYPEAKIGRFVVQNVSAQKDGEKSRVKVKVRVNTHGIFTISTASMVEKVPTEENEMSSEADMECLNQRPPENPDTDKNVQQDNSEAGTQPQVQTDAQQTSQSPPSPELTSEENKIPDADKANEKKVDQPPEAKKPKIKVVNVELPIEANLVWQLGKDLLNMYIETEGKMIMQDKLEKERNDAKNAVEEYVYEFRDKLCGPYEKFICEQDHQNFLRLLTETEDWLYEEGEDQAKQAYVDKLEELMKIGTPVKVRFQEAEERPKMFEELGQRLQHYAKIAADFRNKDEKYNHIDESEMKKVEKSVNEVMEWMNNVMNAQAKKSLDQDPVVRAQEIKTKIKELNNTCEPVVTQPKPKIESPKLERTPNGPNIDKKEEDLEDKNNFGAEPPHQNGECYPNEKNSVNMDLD
UniProt P22314: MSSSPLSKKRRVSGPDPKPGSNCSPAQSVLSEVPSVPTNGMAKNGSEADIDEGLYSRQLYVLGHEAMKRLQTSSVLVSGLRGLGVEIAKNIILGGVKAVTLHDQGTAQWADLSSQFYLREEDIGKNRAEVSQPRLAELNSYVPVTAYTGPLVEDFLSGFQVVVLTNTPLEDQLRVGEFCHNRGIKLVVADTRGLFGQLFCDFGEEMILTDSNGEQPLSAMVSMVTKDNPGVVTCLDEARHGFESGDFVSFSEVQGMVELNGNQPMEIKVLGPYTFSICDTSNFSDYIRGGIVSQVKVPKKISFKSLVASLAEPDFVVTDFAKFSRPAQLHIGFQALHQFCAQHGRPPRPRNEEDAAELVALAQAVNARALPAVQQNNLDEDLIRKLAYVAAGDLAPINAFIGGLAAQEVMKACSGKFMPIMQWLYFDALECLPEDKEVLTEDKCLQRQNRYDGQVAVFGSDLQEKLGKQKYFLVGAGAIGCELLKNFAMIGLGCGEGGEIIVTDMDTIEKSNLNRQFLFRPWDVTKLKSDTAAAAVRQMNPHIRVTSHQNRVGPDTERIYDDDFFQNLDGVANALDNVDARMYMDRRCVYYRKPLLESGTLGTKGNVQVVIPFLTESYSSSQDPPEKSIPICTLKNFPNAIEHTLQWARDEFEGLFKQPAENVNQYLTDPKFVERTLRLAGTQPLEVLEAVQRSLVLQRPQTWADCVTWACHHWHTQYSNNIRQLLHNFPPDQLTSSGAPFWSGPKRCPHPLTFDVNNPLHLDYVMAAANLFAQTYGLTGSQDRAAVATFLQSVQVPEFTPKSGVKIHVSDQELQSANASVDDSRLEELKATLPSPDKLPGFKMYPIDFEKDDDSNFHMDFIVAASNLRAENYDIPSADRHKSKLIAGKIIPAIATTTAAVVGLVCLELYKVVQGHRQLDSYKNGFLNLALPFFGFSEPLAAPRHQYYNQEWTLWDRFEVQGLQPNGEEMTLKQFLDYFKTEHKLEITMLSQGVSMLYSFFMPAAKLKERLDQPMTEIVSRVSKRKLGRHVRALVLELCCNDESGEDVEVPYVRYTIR

Biological target: G3BP1 (human (endogenous in iPSC-derived motor neurons)) (UniProt Q13283)
Experiment: affinity purification with mass spectrometry

Molecule | binding
SEPT9 (protein, UniProt Q9UHD8 1-586) MKKSYSGGTRTSSGRLRRLGDSSGPALKRSFEVEEVETPNSTPPRRVQTPLLRATVASSTQKFQDLGVKNSEPSARHVDSLSQRSPKASLRRVELSGPKAAEPVSRRTELSIDISSKQVENAGAIGPSRFGLKRAEVLGHKTPEPAPRRTEITIVKPQESAHRRMEPPASKVPEVPTAPATDAAPKRVEIQMPKPAEAPTAPSPAQTLENSEPAPVSQLQSRLEPKPQPPVAEATPRSQEATEAAPSCVGDMADTPRDAGLKQAPASRNEKAPVDFGYVGIDSILEQMRRKAMKQGFEFNIMVVGQSGLGKSTLINTLFKSKISRKSVQPTSEERIPKTIEIKSITHDIEEKGVRMKLTVIDTPGFGDHINNENCWQPIMKFINDQYEKYLQEEVNINRKKRIPDTRVHCCLYFIPATGHSLRPLDIEFMKRLSKVVNIVPVIAKADTLTLEERVHFKQRITADLLSNGIDVYPQKEFDEDSEDRLVNEKFREMIPFAVVGSDHEYQVNGKRILGRKTKWGTIEVENTTHCEFAYLRDLLIRTHMQNIKDITSSIHFEAYRVKRLNEGSSAMANGMEEKEPEAPEM | binds
nucleoporin Nup107 (protein, UniProt P57740 1-925) MDRSGFGEISSPVIREAEVTRTARKQSAQKRVLLQASQDENFGNTTPRNQVIPRTPSSFRQPFTPTSRSLLRQPDISCILGTGGKSPRLTQSSGFFGNLSMVTNLDDSNWAAAFSSQRSGLFTNTEPHSITEDVTISAVMLREDDPGEAASMSMFSDFLQSFLKHSSSTVFDLVEEYENICGSQVNILSKIVSRATPGLQKFSKTASMLWLLQQEMVTWRLLASLYRDRIQSALEEESVFAVTAVNASEKTVVEALFQRDSLVRQSQLVVDWLESIAKDEIGEFSDNIEFYAKSVYWENTLHTLKQRQLTSYVGSVRPLVTELDPDAPIRQKMPLDDLDREDEVRLLKYLFTLIRAGMTEEAQRLCKRCGQAWRAATLEGWKLYHDPNVNGGTELEPVEGNPYRRIWKISCWRMAEDELFNRYERAIYAALSGNLKQLLPVCDTWEDTVWAYFRVMVDSLVEQEIQTSVATLDETEELPREYLGANWTLEKVFEELQATDKKRVLEENQEHYHIVQKFLILGDIDGLMDEFSKWLSKSRNNLPGHLLRFMTHLILFFRTLGLQTKEEVSIEVLKTYIQLLIREKHTNLIAFYTCHLPQDLAVAQYALFLESVTEFEQRHHCLELAKEADLDVATITKTVVENIRKKDNGEFSHHDLAPALDTGTTEEDRLKIDVIDWLVFDPAQRAEALKQGNAIMRKFLASKKHEAAKEVFVKIPQDSIAEIYNQCEEQGMESPLPAEDDNAIREHLCIRAYLEAHETFNEWFKHMNSVPQKPALIPQPTFTEKVAHEHKEKKYEMDFGIWKGHLDALTADVKEKMYNVLLFVDGGWMVDVREDAKEDHERTHQMVLLRKLCLPMLCFLLHTILHSTGQYQECLQLADMVSSERHKLYLVFSKEELRKLLQKLRESSLMLLDQGLDPLGYEIQL | binds

The next lines start with the values.

binding | Molecule
binds | HSPH1 (from UniProt Q92598 1-858)
binds | UBA1 (from UniProt P22314 1-1058)

No constants are given. Whether binding was seen depends on the method and setting. In cells and extracts the contact can be indirect. A yes stands for co-enrichment or nearness to the bait. Other partners may have been found.
